Laboratory results published in PubChem BioAssay AID1347076 (National Center for Advancing Translational Sciences (NCATS), 2019).
Screen size: about 400,000 compounds; about 13,000 (3.2%) were called active. The inconclusive results got no clear call from the source; some entries with a clear call stand among them for comparison. Calls follow the shape of the dose curve; as a rule, active = well fitted cell-killing curve with a large enough effect; inconclusive = small, poorly fitted or top-dose-only effect, or effect the other way; inactive = flat fitted curve, though single readings scatter. Where the call is inconclusive, the potency comes from a doubtful curve fit.

Assay: qHTS assay for MDR1-selective chemotherapeutics: Primary screen using the drug-selected MDR subline cells KB-V1; also: nearly all actives have a fitted effect of over 60% in size
Settings: KB-V1 MDR cells viability, CellTiter-Glo, 72 h; activity change, negative = cytotoxicity: at 46.1 µM (top of the series)
Summary of the method: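 KB-V1, DMEM (no phenol red) + 10% FBS; cpd pin-transferred, titration series; 72 h, 37 degrees C; CellTiter-Glo, luminescence. Data normalized, curve-fit.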
% is scaled to controls: 0 for no effect and ±100 for the full control effect; potency is read from the fitted curve at half-maximal effect.

SMILES	Potency	activity change, negative = cytotoxicity
CCOC(=O)c1ccccc1NC(=O)COC(=O)CC(C)(C)CC1=NS(=O)(=O)c2ccccc2N1	inconclusive: 29.1 µM [cytotoxic, partial curve, poor fit]	
O=C1N/C(=C\c2ccc(O)cc2)C(=O)c2ccccc21	inactive	
Cc1cc(C)n2nc(CNS(=O)(=O)c3ccccc3)nc2n1	inactive	
Cc1ccccc1OCCC(=O)OCC(=O)NC1CCS(=O)(=O)C1 (stereo unspecified)	inactive	
CC1CCc2c(c3ccccc3n2C(=O)CCl)C1 (stereo unspecified)	inconclusive: 32.6 µM [rising, partial curve, poor fit]	
O=C(CSc1nnnn1-c1ccc2c(c1)OCCO2)Nc1nc2c(s1)CCCC2	active: 16.4 µM	
CC12C(=O)N(NC(=O)c3ccncc3)C(=O)C1C1C=CC2C1 (stereo unspecified)		inconclusive: -20.9%
Cc1ccc(SC[C@H](C)CN2CC[C@H](NC(=O)OCc3ccccc3)CCC2=O)cc1	inconclusive: 20.6 µM [cytotoxic, single point]	
CCN(CC)c1ccc(N)cc1	inactive	
COc1ccc(NC(=O)C(c2ccccc2)n2c(=O)c(-c3cc4ccccc4[nH]3)nc3ccccc32)cc1 (stereo unspecified)	inactive	
O=C1CCCCC(=O)[C@H](OC(=O)c2ccccc2)C[C@H](c2ccccc2)O1	inconclusive: 18.4 µM [cytotoxic, single point]	
Cc1cccc(C(C)C)c1NC(=O)c1ccc2c(c1)CCN2S(C)(=O)=O	inactive	
Cc1ccc(C)c(N2CCN(C(=O)c3ccc(Cl)c(NC4=NC5CS(=O)(=O)CC5S4)c3)CC2)c1 (stereo unspecified)	inactive	
Cc1cc2nc(-c3cccc(Br)c3)c(CC(C)(C)C)n2c(C)c1Br	inactive	
CN=C1N(C)C[C@@H]2[C@@H]3C(=O)N(C)C(=O)[C@@H]3[C@](Cc3ccccc3)(C(=O)OC)N12	inactive	
COc1ccc(C(=O)n2nc(-c3ccc(C)cc3)nc2N)cc1OC	inconclusive: 29.1 µM [cytotoxic, single point]	
Fc1cc(Br)ccc1Nc1nc2ccccc2n2nnnc12	inconclusive: 29.1 µM [cytotoxic, single point]	
O=C(Nc1ccc2c(c1)OCCO2)c1ccc(CN2CCOCC2)cc1	inactive	
CCOC(=O)c1cnc(SCc2nc(N)nc(Nc3ccccc3)n2)nc1N	inconclusive: 23.1 µM [cytotoxic, single point]	
CCn1c(SCC(=O)N(C(C)C)C(C)C)nnc1-c1cc2ccccc2cc1O	active: 3.66 µM	
CCCCSc1nnc([C@H](C)NC(=O)OC(C)(C)C)o1	active: 13 µM	
Cc1ccc(CSCC(=O)N(C)CC(=O)Nc2ccccc2Cl)cc1	inactive	
CCOC(=O)c1cc2c(=O)n3ccccc3nc2n(CC2CCCO2)c1=NC(=O)/C=C/c1ccccc1 (stereo unspecified)	inconclusive: 23.1 µM [cytotoxic, partial curve, poor fit]	
CC1(C(=O)NCc2cccc3ccccc23)CCN1C(=O)Cc1ccc(-c2ccccc2)cc1 (stereo unspecified)	inactive	

SMILES	Potency	activity change, negative = cytotoxicity
COC(=O)C[C@H]1c2ccccc2S(=O)(=O)N1Cc1ccc(OC)cc1	inconclusive: 20.6 µM [cytotoxic, single point]	
COc1ccc(C(C#N)CC(=O)c2ccc(OCc3ccccc3)c(OC)c2)cc1OC (stereo unspecified)	inconclusive: 7.31 µM [cytotoxic, partial curve, poor fit]	
COc1ccccc1CNC(=O)[C@H](CCSC)NC(=O)[C@@H]1Cc2ccccc2CN1	inactive	
O=C1/C(=C/c2cccnc2)SC(=NCc2ccccc2)N1Cc1ccccc1	inconclusive: 29.1 µM [cytotoxic, single point]	
Cc1ccc(CCNC(=O)C2CCCN(C(=O)N(C)C)C2)cc1 (stereo unspecified)	inconclusive: 18.4 µM [cytotoxic, single point]	
N#Cc1ccccc1Cn1cc(/C=N/Nc2ccc([N+](=O)[O-])cn2)c2ccccc21	inconclusive: 4.61 µM [cytotoxic, partial curve, poor fit]	
OC(c1ccc(F)c(F)c1)c1nc(-c2cnc3ccccc3c2)cs1 (stereo unspecified)	inconclusive: 18.4 µM [cytotoxic, single point]	
C(=N\N(c1ccccc1)c1ccccc1)/c1ccccn1	inactive	
O=C(O)CCc1ccc(-c2ccccc2)n1-c1ccc(C(=O)O)cc1	inconclusive: 7.31 µM [rising, partial curve, poor fit]	
COc1ccc(C2SCC(=O)N2c2nnc(C34CC5CC(CC(C5)C3)C4)s2)cc1 (stereo unspecified)	inconclusive: 7.31 µM [cytotoxic, partial curve, poor fit]	
CCCC1=Nc2cc(C(=O)NCCN3CCOCC3)ccc2Sc2ccccc21	inconclusive: 5.8 µM [cytotoxic, partial curve]	
O=C(CN(c1ccc(Cl)cc1)S(=O)(=O)c1ccc(Cl)c([N+](=O)[O-])c1)NCCc1ccccc1	inactive	
Cc1ccc(-c2cc3c(N=O)c4ccccc4c-3n[nH]2)cc1	inactive	
Cc1ccc(-c2nnc(Nc3ccc(C(=O)N(C)C)cc3)c3ccccc23)cc1S(=O)(=O)N(C)C	inconclusive: 29.1 µM [rising, single point]	
COc1ccc(NC(=O)c2ccc([N+](=O)[O-])o2)cc1	inconclusive: 32.6 µM [cytotoxic, single point]	
COCCNC(=O)/C(C#N)=C/C=C/c1ccccc1[N+](=O)[O-]	inconclusive: 20.6 µM [cytotoxic, single point]	
Cc1ccc(-c2cc(C(=O)N/N=C/C=C/c3ccco3)c3ccccc3n2)cc1C	inconclusive: 14.6 µM [cytotoxic, partial curve]	
CCOc1ccc(CN(C)C(=O)CCl)cc1	inconclusive: 29.1 µM [cytotoxic, single point]	
C#Cc1ccc(CN2CCC(C(=O)Nc3ccc(Oc4ccccc4)nc3)CC2)cc1	inconclusive: 2.91 µM [cytotoxic, full curve, poor fit]	
Cc1ccc(NC(=O)[C@@H]2CCCN2C(=O)[C@@H]2Cc3ccccc3CN2)c(C)c1	inactive	
Cc1ccc(NC(=O)c2ccc3c(O)c(S(=O)(=O)c4ccccc4)c(=O)[nH]c3c2)cc1Cl	inactive	
CCOC(=O)c1[nH]c(C)c(C(=O)NCc2ccc(Cl)cc2)c1C	active: 23.1 µM	
O=C(COc1ccccc1C(=O)NCc1ccccc1)Nc1ccccc1	inconclusive: 29.1 µM [cytotoxic, single point]	
COc1ccc(OCCN2CCN(C(=O)c3ccc(OC)c(OC)c3)CC2)cc1	inconclusive: 29.1 µM [cytotoxic, single point]	

SMILES	Potency	activity change, negative = cytotoxicity
CN(C)c1cccc(C(=O)NCc2ccccc2)c1	inconclusive: 8.2 µM [cytotoxic, partial curve]	
CN(C)S(=O)(=O)c1ccc(Cl)c(C(=O)Nc2ccccc2[N+](=O)[O-])c1	active: 16.4 µM	
Oc1ccccc1-c1nc(NCc2cccnc2)c2ccccc2n1	inconclusive: 18.4 µM [cytotoxic, single point]	
Cc1ccc2c(c1)ncc[n+]2CC(=O)c1ccc(F)cc1	inactive	
Cc1c(C(=O)C(=O)N2CCCc3ccccc32)c2ccccc2n1C	inconclusive: 18.4 µM [cytotoxic, single point]	
O=C(NCC(c1ccc(F)cc1)N1CCOCC1)c1ccc(Br)o1 (stereo unspecified)	inconclusive: 18.4 µM [cytotoxic, partial curve]	
CCN1CCN(C(=S)c2ccc(OCC(=O)NCc3ccccc3)cc2)CC1	inconclusive: 29.1 µM [rising, single point]	
C=CCc1ccccc1OCCSc1nc2ccc([N+](=O)[O-])cc2s1	inactive	
C=C(C)COc1ccc2c(CC)cc(=O)oc2c1C	active: 20.6 µM	
COc1ccccc1Cn1c(=S)[nH]c2ccccc2c1=O	inactive	
Nc1ccn([C@@H]2O[C@H](C(=O)N[C@H](CO)c3ccccc3)[C@@H](O)[C@H]2O)c(=O)n1	inconclusive: 32.6 µM [cytotoxic, single point]	
Cc1cc(C)c(CN2CCC(CO)(CCOc3ccccc3)CC2)cc1C	inactive	
O=C(NCCCN1CCCCCC1)c1ccc2c(c1)NC(=O)C(N1CCOCC1)S2 (stereo unspecified)	inconclusive: 13 µM [rising, partial curve, poor fit]	
O=C(O)c1ccccc1NC(=O)C1C2C=CC(C2)C1C(=O)O (stereo unspecified)	inconclusive: 10.3 µM [rising, partial curve]	
CCc1cccc(C)c1NC(=O)CSc1nnc(CCCOc2ccc(Cl)cc2Cl)n1C	active: 4.61 µM	
CCCCNC(=O)C1C(c2ccccc2)=Nc2ccccc2N1C(=O)c1ccc(C(F)(F)F)cc1 (stereo unspecified)	inconclusive: 5.8 µM [cytotoxic, partial curve]	
N/C(=N\OC(=O)CCCc1ccccc1)c1ccccc1Cl	inconclusive: 29.1 µM [rising, single point]	
CN(C)S(=O)(=O)c1cc(NC(=O)CSc2ncc(C(F)(F)F)cc2Cl)ccc1Cl	inconclusive: 8.2 µM [cytotoxic, partial curve, poor fit]	
O=C(/C=C/c1ccccc1)NC(NC(=S)Nc1ccc(C(=O)O)cc1)C(Cl)(Cl)Cl (stereo unspecified)	inactive	
CC(C)(C)CC(=O)NCC(c1ccc2c(c1)OCO2)N1CCOCC1 (stereo unspecified)	inconclusive: 23.1 µM [rising, partial curve, poor fit]	
COc1ccc(C(=O)NCC(c2ccc(N(C)C)cc2)N2CCc3ccccc32)cc1OC (stereo unspecified)	inactive	
COC(=O)c1ccccc1NC(=O)C1CCN(C(=O)N2CC(C)Oc3ccccc32)CC1 (stereo unspecified)	inactive	
CCCN(C)C1CN(Cc2cn(Cc3cccc(Cl)c3)nn2)S(=O)(=O)C1 (stereo unspecified)	inconclusive: 13 µM [cytotoxic, partial curve, poor fit]	
